Data from PubChem BioAssay AID2685 (National Center for Advancing Translational Sciences (NCATS), 2010).
Some of the results follow. The main result of the screen is listed elsewhere. These columns were measured beside it and carry no call. The list favours compounds with an active or inconclusive main result. The note in brackets gives the kind of curve behind each potency; many fits are weak.

Assay: qHTS Assay for Lipid Storage Modulators in Drosophila S3 Cells;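 on cell number change: cells counted by Cell Tracker Red CMTPX staining in the red channel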
Details: BODIPY lipid droplet fluorescence, 18-24 h; for cell number change: measured here: cell count max response, cells fed with added oleic acid
In short: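 Laser-scanning cytometry quantifies lipid droplet accumulation (500–530 nm total intensity; droplet/cell object ratio) in oleic acid-fed (400 uM added) Drosophila S3 cells treated with a concentration series. 20 uM Triacsin C defined 100% inhibition.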

[1] = measured here: cell number channel AC50, cells fed with added oleic acid
[2] = measured here: lipid fluorescence (Fed channel) AC50, cells fed with added oleic acid

| Structure (SMILES) | cell number change [%] | AC50 [1] | AC50 [2] |
| --- | --- | --- | --- |
| O=C(NCc1ccccc1)c1cc2ccccc2o1 | 40.3 | 1.46 µM [rising, full curve, poor fit] | 29.1 µM [rising, single point] |
| O=C(NCCCc1ccccc1)C1CCC(=O)N(CCc2ccc(Cl)cc2)C1 (stereo unspecified) | -12.9 | 2.31 µM [rising, partial curve] | 16.4 µM [falling, single point] |
| c1ccc2c(c1)ncn2Cc1nnc2sc(-c3ccc4c(c3)OCO4)nn12 | -21.8 |  |  |
| CCc1ccc(/C([O-])=C(/C(=S)NCCN2CCOCC2)[n+]2ccccc2)cc1 | 22.4 |  |  |
| Cc1ccnc(NC(=O)CNC(=O)c2cccs2)c1 | -14.1 |  |  |
| O=S(=O)(c1ccc(F)cc1)n1ccc(-c2cnc(-c3ccccc3)s2)n1 | 24.7 |  | 1.84 µM [rising, partial curve] |
| CCCN(Cc1nc2cc(Cl)ccc2c(=O)[nH]1)C(=O)c1ccc(S(=O)(=O)N2CCCC2)cc1 | -33.7 | 16.4 µM [falling, single point] |  |
| Cc1ccc(NC(=O)COC(=O)Cc2ccsc2)c(C)c1 |  | 6.51 µM [rising, single point] | 9.2 µM [rising, partial curve] |
| N#Cc1c(C(F)(F)F)cc(-c2ccc(Cl)c(Cl)c2)nc1SCCN1CCOCC1 | 11.4 |  | 25.9 µM [rising, single point] |
| Cc1ccc(S(=O)(=O)N2CCN=C2SCc2ccccc2)cc1 | -10.6 |  | 29.1 µM [falling, single point] |
| CCOC(=O)Cc1csc(SCC(=O)NC2CCS(=O)(=O)C2)n1 (stereo unspecified) | -0.376 | 6.51 µM [falling, partial curve, poor fit] | 6.51 µM [falling, partial curve, poor fit] |
| O=C(COc1ccccc1)NNc1c2ccccc2nc2ccccc12 | -77.2 | 20.6 µM [falling, partial curve] |  |
| O=c1[nH]c(CN2CCC(c3nc4ccccc4s3)CC2)nc2sc3c(c12)CCC3 | 7.64 |  |  |
| COc1ccc(C2CC(C(F)(F)F)n3nc(C(=O)NCCN4CCOCC4)cc3N2)cc1 (stereo unspecified) | -4.4 |  |  |
| Cn1c(=O)c2c(nc(NCCO)n2CCCc2ccccc2)n(C)c1=O | -48.6 | 29.1 µM [falling, single point] | 16.4 µM [falling, single point] |
| CCOn1c(=O)c(-c2ccc(OC)cc2)[n+]([O-])c2ccccc21 | 84.5 | 11.6 µM [rising, partial curve] | 5.17 µM [rising, single point] |
| NC1=NC(=Nc2ccc(Br)cc2)c2ccccc21 | 26.7 |  | 11.6 µM [rising, partial curve] |
| Cc1nn(CCC(=O)NCc2ccc(N(C)C)cc2)c(=O)c2nn(-c3ccccc3)c(C)c12 | -4.56 |  | 20.6 µM [rising, single point] |
| Cc1ccc(S(=O)(=O)NNC(=S)Nc2cccc(C)c2C)cc1 | -1.75 |  |  |
| O=S(=O)(/N=C(/Nc1nc2ccccc2s1)c1ccccc1)c1ccc(F)cc1 | 6.02 |  |  |

Of the compounds above, two contain an aryl thioether with sulfur outside any ring:

| Structure (SMILES) | cell number change [%] | AC50 [1] | AC50 [2] |
| --- | --- | --- | --- |
| N#Cc1c(C(F)(F)F)cc(-c2ccc(Cl)c(Cl)c2)nc1SCCN1CCOCC1 | 11.4 |  | 25.9 µM [rising, single point] |
| CCOC(=O)Cc1csc(SCC(=O)NC2CCS(=O)(=O)C2)n1 (stereo unspecified) | -0.376 | 6.51 µM [falling, partial curve, poor fit] | 6.51 µM [falling, partial curve, poor fit] |

More records:

| Structure (SMILES) | cell number change [%] | AC50 [1] | AC50 [2] |
| --- | --- | --- | --- |
| Cn1c(SCC(=O)O)nc2sc3c(c2c1=O)CCC3 | 26 |  | 0.58 µM [rising, single point] |
| COc1ccc(N=Nc2nc3cc(Br)c(Br)cc3n2C)c(OC)c1 | -10.8 |  |  |
| CCn1c2ccccc2c2nnc(SCC(N)=O)nc21 | 82.4 | 5.8 µM [rising, partial curve] | 2.31 µM [rising, partial curve] |
| O=P(O)(O)c1ccccc1OCCCCCOc1ccccc1P(=O)(O)O | 23.3 |  | 6.51 µM [rising, full curve, poor fit] |
| CN(c1ccc(OCC(=O)N2CCCC2)cc1)S(=O)(=O)c1ccc(Cl)cc1 | 36.4 | 11.6 µM [rising, partial curve] |  |
| O=[N+]([O-])c1ccccc1-c1ccc(CN2CCN(c3ccccc3)CC2)o1 | 6.77 | 0.0517 µM [rising, full curve, poor fit] |  |
| O=C(Cn1ncc(Cl)c(Cl)c1=O)NCC1CCCCC1 | -16.2 |  | 29.1 µM [falling, single point] |
| CC(C)[C@H](NC(=O)CCn1nnc2ccccc2c1=O)C(=O)O | -14.6 |  | 2.06 µM [rising, partial curve] |
| O=S(=O)(c1ccc(Cl)cc1)N1CCCC1c1nc2ccccc2s1 (stereo unspecified) | 11.2 |  |  |
| Cc1occc1C(=O)Nc1ccccc1C(=O)O | 7.75 |  |  |
| Cc1cc(C)cc(NC(=O)C2CCN(c3nccs3)CC2)c1 | -17 |  | 0.731 µM [rising, full curve, poor fit] |
| CC(C)C[C@H](NC(=O)c1nc[nH]c1C(=O)NCC(=O)OCc1ccccc1)C(=O)OC(C)(C)C | 21.6 |  |  |
| CC(Cl)C(=O)NC(=O)NC12CC3CC(CC(C3)C1)C2 (stereo unspecified) | -31.1 | 14.6 µM [falling, single point] | 13 µM [falling, single point] |
| CCN1CCc2c(sc3c2c(NCc2ccco2)nc2nnnn23)C1 | -5.29 | 0.731 µM [falling, single point] |  |
| O=C(Nc1ccccc1C(=O)O)c1cncc(Br)c1 | 16.6 |  | 29.1 µM [falling, single point] |
| N#C/C(=C/c1ccc(F)cc1)c1nnc(NC(=O)c2ccccc2)s1 | 20.4 |  | 5.17 µM [rising, partial curve, poor fit] |
| O=C(CN1CCN(Cc2ccc(F)cc2Cl)C1=O)NCCCN1CCOCC1 | -9.79 |  | 0.291 µM [falling, partial curve, poor fit] |
| CC(Sc1ccc(Cl)cc1)C(=O)NCc1ccc2c(c1)OCO2 (stereo unspecified) | 10.7 |  | 7.31 µM [rising, partial curve] |
| CC1(CCC(=O)N2CCCC(N3CCN(c4cccc(C(F)(F)F)c4)CC3)C2)CC1 (stereo unspecified) | -31.7 | 9.2 µM [falling, partial curve, poor fit] |  |
| CC(C)(C)c1ccc(C2/C(=C(\O)c3ccc4c(c3)OCCO4)C(=O)C(=O)N2CCCN2CCOCC2)cc1 (stereo unspecified) | -8.26 |  | 0.58 µM [falling, single point] |
